{"source": "PubChem BioAssay AID1259254 (NCATS, 2017)", "assay": "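Finding genes that stop cells copying their DNA twice in one cycle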 (primary screen)", "system": "human HCT116 colorectal cancer cells", "reagent": "single siRNA against human genes", "time to read-out": "3 days", "measured": "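Imaged Hoechst DNA stain sorts each cell into a cycle phase by DNA amount; per plate, G2 fraction set to 0% for non-targeting and 100% for GMNN siRNA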", "direction": "G2 robust z-score and G2 cells, % of GMNN control: higher = more G2 cells, more excess DNA replication", "active means": "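Active siRNAs have a G2 robust z of 5 or more median absolute deviations over the median, which in these data means about 38% or higher of GMNN control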", "note": "This is a random part of about 59,000 reagents tested. Over the whole deposit, about 1,550 (2.6%) were called active. 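G2 share is only a proxy for re-replication; each gene was hit by three separate siRNAs, and active genes were retested.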 The numbers tell different reagents against one gene apart. Further read-outs or replicates are left out here. Not stated in the record: the amount of reagent."}
{"target gene": "DNMBP (GeneID 23268)", "reagent no.": 1, "G2 robust z-score": -0.967, "G2 cells, % of GMNN control": -3.84, "outcome": "inactive"}
{"target gene": "DNMBP (GeneID 23268)", "reagent no.": 2, "G2 robust z-score": 1.51, "G2 cells, % of GMNN control": 13.6, "outcome": "inactive"}
{"target gene": "DNMBP (GeneID 23268)", "reagent no.": 3, "G2 robust z-score": -0.0334, "G2 cells, % of GMNN control": 2.73, "outcome": "inactive"}
{"target gene": "PRIMPOL (GeneID 201973)", "reagent no.": 1, "G2 robust z-score": 2.38, "G2 cells, % of GMNN control": 19.7, "outcome": "inactive"}
{"target gene": "PRIMPOL (GeneID 201973)", "reagent no.": 2, "G2 robust z-score": -0.791, "G2 cells, % of GMNN control": -2.59, "outcome": "inactive"}
{"target gene": "PRIMPOL (GeneID 201973)", "reagent no.": 3, "G2 robust z-score": -0.271, "G2 cells, % of GMNN control": 1.06, "outcome": "inactive"}
{"target gene": "BTNL9 (GeneID 153579)", "reagent no.": 1, "G2 robust z-score": -0.681, "G2 cells, % of GMNN control": -1.83, "outcome": "inactive"}
{"target gene": "BTNL9 (GeneID 153579)", "reagent no.": 2, "G2 robust z-score": 1.82, "G2 cells, % of GMNN control": 15.8, "outcome": "inactive"}
{"target gene": "BTNL9 (GeneID 153579)", "reagent no.": 3, "G2 robust z-score": -0.719, "G2 cells, % of GMNN control": -2.09, "outcome": "inactive"}
{"target gene": "TAF4 (GeneID 6874)", "reagent no.": 1, "G2 robust z-score": 1.55, "G2 cells, % of GMNN control": 13.9, "outcome": "inactive"}
{"target gene": "TAF4 (GeneID 6874)", "reagent no.": 2, "G2 robust z-score": 0.916, "G2 cells, % of GMNN control": 9.41, "outcome": "inactive"}
{"target gene": "TAF4 (GeneID 6874)", "reagent no.": 3, "G2 robust z-score": 1.15, "G2 cells, % of GMNN control": 11.1, "outcome": "inactive"}
{"target gene": "ANKEF1 (GeneID 63926)", "reagent no.": 1, "G2 robust z-score": -0.467, "G2 cells, % of GMNN control": -0.32, "outcome": "inactive"}
{"target gene": "ANKEF1 (GeneID 63926)", "reagent no.": 2, "G2 robust z-score": -1.01, "G2 cells, % of GMNN control": -4.15, "outcome": "inactive"}
{"target gene": "ANKEF1 (GeneID 63926)", "reagent no.": 3, "G2 robust z-score": 1.11, "G2 cells, % of GMNN control": 10.8, "outcome": "inactive"}
{"target gene": "PSTPIP2 (GeneID 9050)", "reagent no.": 1, "G2 robust z-score": 0.992, "G2 cells, % of GMNN control": 9.95, "outcome": "inactive"}
{"target gene": "PSTPIP2 (GeneID 9050)", "reagent no.": 2, "G2 robust z-score": 1.64, "G2 cells, % of GMNN control": 14.5, "outcome": "inactive"}
{"target gene": "PSTPIP2 (GeneID 9050)", "reagent no.": 3, "G2 robust z-score": -0.11, "G2 cells, % of GMNN control": 2.19, "outcome": "inactive"}
{"target gene": "EDC4 (GeneID 23644)", "reagent no.": 1, "G2 robust z-score": -0.201, "G2 cells, % of GMNN control": 1.55, "outcome": "inactive"}
{"target gene": "EDC4 (GeneID 23644)", "reagent no.": 2, "G2 robust z-score": 1.08, "G2 cells, % of GMNN control": 10.5, "outcome": "inactive"}
{"target gene": "EDC4 (GeneID 23644)", "reagent no.": 3, "G2 robust z-score": 0.102, "G2 cells, % of GMNN control": 3.69, "outcome": "inactive"}
{"target gene": "ZNF699 (GeneID 374879)", "reagent no.": 1, "G2 robust z-score": -0.533, "G2 cells, % of GMNN control": -0.781, "outcome": "inactive"}
{"target gene": "ZNF699 (GeneID 374879)", "reagent no.": 2, "G2 robust z-score": -0.41, "G2 cells, % of GMNN control": 0.0851, "outcome": "inactive"}
{"target gene": "ZNF699 (GeneID 374879)", "reagent no.": 3, "G2 robust z-score": -0.597, "G2 cells, % of GMNN control": -1.23, "outcome": "inactive"}
{"target gene": "GAD1 (GeneID 2571)", "reagent no.": 1, "G2 robust z-score": -1.08, "G2 cells, % of GMNN control": -4.65, "outcome": "inactive"}
{"target gene": "GAD1 (GeneID 2571)", "reagent no.": 2, "G2 robust z-score": -0.546, "G2 cells, % of GMNN control": -0.874, "outcome": "inactive"}
{"target gene": "GAD1 (GeneID 2571)", "reagent no.": 3, "G2 robust z-score": 0.0876, "G2 cells, % of GMNN control": 3.58, "outcome": "inactive"}
{"target gene": "MTR (GeneID 4548)", "reagent no.": 1, "G2 robust z-score": -0.399, "G2 cells, % of GMNN control": 0.158, "outcome": "inactive"}
{"target gene": "MTR (GeneID 4548)", "reagent no.": 2, "G2 robust z-score": 0.165, "G2 cells, % of GMNN control": 4.13, "outcome": "inactive"}
{"target gene": "MTR (GeneID 4548)", "reagent no.": 3, "G2 robust z-score": -0.756, "G2 cells, % of GMNN control": -2.35, "outcome": "inactive"}
